These are yes or no findings as the source states them, for the method shown. Some entries that bind do so weakly or less than the wild type.
Columns and labels:
[1] = target: human ELP123 subcomplex (ELP1, ELP2, ELP3) (human) (UniProt O95163+Q6IA86+Q9H9T3); assay: cross-linking; photo-crosslinking mass spectrometry with sulfo-SDA on purified reconstituted Elongator; HsElongator 85 µg at 1.4 µM, MmElongator 60 µg at 5.0 µM; 1:500 and 1:1000 protein:crosslinker, 60 min at room temperature, UV 365 nm for 10 s; 3% FDR at the residue pair level; both purified
[2] = target: mouse Elp123 subcomplex (Elp1, Elp2, Elp3) of the reconstituted mouse Elongator complex (mouse) (UniProt Q7TT37+Q91WG4+Q9CZX0); assay: as above

Chains of the proteins cited; added tags and fusions are not shown. Lines headed by an entry give the natural chain unless they say otherwise; changes in a name come on top.
UniProt O95163: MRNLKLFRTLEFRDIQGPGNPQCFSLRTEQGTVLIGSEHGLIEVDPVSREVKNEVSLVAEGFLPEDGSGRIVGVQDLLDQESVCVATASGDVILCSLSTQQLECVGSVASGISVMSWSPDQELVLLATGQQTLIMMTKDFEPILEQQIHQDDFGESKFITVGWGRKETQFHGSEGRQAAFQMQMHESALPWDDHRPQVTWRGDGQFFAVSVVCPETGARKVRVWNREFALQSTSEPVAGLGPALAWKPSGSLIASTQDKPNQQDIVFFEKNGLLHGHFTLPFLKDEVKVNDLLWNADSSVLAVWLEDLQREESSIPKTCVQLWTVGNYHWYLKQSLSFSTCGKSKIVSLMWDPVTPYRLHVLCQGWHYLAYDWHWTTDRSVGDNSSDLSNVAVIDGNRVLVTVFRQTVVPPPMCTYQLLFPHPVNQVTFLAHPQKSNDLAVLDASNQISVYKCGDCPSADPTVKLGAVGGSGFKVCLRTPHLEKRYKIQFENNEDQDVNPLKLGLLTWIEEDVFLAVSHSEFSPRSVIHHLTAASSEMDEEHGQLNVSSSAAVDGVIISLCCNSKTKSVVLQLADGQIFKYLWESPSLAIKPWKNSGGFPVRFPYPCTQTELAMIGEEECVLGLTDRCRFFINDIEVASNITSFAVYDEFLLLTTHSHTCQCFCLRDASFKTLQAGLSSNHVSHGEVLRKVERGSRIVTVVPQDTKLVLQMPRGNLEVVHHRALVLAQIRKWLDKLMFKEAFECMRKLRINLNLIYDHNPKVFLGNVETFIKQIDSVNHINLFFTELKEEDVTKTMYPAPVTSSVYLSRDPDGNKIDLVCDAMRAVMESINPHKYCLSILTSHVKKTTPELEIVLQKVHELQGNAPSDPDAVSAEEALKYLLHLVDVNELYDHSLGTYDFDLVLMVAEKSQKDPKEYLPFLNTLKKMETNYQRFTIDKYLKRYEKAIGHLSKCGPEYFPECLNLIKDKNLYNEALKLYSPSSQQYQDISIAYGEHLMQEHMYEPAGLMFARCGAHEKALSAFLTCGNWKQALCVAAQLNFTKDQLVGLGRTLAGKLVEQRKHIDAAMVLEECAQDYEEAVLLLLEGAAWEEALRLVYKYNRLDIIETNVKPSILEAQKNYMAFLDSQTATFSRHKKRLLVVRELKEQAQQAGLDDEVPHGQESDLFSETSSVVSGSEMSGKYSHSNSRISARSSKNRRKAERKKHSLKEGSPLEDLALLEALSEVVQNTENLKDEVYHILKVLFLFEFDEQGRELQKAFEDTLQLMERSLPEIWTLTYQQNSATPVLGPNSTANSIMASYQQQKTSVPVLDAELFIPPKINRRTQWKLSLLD
UniProt Q6IA86: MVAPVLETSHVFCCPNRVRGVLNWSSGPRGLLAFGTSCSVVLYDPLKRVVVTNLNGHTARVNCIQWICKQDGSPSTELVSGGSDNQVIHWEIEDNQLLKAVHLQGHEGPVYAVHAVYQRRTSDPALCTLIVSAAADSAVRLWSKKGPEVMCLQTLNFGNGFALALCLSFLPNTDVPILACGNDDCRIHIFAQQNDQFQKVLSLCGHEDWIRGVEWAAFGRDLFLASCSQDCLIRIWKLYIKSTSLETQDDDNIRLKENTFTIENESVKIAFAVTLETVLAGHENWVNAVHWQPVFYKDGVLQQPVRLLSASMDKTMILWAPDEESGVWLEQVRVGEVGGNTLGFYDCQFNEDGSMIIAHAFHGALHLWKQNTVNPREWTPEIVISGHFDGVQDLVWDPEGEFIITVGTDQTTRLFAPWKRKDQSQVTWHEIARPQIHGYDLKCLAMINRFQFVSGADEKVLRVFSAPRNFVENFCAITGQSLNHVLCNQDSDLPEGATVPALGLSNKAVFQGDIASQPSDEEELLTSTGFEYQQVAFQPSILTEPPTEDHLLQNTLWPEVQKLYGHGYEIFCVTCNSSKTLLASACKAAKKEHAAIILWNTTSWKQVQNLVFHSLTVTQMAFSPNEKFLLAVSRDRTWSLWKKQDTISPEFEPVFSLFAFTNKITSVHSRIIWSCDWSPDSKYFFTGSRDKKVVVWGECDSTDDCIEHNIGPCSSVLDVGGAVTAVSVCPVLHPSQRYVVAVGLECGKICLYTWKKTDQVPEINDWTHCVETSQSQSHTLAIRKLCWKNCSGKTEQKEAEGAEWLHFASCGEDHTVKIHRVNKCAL
UniProt Q9H9T3: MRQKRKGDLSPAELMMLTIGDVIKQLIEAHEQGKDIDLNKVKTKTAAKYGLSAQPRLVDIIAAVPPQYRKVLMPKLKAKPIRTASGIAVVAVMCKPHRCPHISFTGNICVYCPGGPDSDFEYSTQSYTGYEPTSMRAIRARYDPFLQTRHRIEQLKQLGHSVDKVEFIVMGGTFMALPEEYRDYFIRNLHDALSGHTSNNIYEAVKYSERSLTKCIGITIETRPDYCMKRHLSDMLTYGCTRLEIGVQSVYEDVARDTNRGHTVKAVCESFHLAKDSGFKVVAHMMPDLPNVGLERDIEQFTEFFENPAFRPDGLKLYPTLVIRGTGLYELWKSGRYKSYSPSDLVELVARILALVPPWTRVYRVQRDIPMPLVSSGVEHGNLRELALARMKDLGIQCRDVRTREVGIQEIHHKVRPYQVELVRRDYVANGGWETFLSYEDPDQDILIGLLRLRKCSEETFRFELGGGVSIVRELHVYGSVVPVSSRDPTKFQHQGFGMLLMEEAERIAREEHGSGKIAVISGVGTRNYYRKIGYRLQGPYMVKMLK
UniProt Q7TT37: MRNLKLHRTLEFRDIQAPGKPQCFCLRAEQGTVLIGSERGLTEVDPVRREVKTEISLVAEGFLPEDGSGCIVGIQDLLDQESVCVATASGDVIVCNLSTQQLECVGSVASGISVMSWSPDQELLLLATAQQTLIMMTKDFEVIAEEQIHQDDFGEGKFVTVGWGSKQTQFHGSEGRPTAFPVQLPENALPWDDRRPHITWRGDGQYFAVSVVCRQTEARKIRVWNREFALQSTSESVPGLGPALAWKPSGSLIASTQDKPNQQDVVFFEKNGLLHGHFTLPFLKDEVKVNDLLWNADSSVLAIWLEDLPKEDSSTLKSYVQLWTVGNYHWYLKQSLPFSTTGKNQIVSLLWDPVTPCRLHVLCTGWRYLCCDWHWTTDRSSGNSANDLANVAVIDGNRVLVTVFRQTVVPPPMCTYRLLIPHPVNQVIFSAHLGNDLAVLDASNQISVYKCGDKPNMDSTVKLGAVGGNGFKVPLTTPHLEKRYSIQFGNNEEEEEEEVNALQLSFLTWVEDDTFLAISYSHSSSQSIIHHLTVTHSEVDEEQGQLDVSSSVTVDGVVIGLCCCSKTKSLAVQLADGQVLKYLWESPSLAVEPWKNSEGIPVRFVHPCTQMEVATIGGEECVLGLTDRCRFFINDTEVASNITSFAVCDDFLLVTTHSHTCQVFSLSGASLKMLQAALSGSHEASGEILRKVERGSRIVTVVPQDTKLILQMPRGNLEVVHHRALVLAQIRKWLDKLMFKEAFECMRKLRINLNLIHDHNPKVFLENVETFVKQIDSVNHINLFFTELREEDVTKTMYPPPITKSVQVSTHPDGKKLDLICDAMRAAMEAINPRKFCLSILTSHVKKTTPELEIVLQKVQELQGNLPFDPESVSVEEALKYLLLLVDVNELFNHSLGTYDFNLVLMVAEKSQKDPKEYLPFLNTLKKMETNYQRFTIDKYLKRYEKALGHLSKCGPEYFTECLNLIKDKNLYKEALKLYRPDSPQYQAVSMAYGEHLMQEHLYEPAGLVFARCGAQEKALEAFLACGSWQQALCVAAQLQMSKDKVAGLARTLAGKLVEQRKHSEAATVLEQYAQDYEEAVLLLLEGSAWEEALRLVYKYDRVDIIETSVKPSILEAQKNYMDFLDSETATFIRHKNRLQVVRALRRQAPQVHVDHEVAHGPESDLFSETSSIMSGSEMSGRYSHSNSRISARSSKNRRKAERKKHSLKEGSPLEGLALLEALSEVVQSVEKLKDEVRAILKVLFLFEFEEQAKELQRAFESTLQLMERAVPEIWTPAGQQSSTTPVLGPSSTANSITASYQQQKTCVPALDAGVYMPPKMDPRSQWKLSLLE
UniProt Q91WG4: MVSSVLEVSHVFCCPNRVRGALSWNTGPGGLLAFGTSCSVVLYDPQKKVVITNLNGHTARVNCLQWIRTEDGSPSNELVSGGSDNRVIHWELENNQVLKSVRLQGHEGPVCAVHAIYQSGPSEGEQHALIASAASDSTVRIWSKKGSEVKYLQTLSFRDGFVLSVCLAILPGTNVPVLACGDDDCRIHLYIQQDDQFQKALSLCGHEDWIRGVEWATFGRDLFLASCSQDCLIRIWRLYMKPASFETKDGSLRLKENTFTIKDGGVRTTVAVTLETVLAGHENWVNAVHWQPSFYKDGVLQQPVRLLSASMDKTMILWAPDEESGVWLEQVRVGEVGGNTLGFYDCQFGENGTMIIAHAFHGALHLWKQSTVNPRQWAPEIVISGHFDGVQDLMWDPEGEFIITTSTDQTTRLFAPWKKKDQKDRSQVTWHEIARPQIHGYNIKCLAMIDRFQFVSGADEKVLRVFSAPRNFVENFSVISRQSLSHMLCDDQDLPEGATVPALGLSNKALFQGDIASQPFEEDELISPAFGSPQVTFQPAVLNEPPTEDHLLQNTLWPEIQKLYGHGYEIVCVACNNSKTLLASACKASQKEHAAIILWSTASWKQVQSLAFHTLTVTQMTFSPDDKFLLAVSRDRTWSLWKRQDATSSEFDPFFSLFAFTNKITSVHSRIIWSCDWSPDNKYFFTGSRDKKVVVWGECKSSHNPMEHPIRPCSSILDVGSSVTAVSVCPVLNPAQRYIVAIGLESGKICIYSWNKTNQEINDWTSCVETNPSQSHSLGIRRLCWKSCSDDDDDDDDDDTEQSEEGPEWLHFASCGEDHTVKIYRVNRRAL
UniProt Q9CZX0: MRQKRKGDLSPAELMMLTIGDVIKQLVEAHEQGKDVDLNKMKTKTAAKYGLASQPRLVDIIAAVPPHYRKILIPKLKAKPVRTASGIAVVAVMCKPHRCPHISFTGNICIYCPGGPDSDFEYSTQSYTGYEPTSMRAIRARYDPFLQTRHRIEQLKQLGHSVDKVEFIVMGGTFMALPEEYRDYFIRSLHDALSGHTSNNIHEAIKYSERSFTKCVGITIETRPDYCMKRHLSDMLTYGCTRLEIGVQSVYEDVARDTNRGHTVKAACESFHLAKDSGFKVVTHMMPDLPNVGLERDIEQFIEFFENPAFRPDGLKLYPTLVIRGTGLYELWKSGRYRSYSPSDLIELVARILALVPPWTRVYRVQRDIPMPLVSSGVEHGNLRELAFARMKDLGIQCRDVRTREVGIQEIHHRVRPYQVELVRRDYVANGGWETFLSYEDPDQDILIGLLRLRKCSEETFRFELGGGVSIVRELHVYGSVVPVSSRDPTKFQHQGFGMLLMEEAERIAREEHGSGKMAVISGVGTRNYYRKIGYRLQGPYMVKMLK

Row | Binder | binding [1] | binding [2]
1 | human ELP456 subcomplex (ELP4, ELP5, ELP6) (complex, UniProt Q96EB1 1-424; Q8TE02 1-300; Q0PNE2 1-266) chain 1: MAAVATCGSVAASTGSAVATASKSNVTSFQRRGPRASVTNDSGPRLVSIAGTRPSVRNGQLLVSTGLPALDQLLGGGLAVGTVLLIEEDKYNIYSPLLFKYFLAEGIVNGHTLLVASAKEDPANILQELPAPLLDDKCKKEFDEDVYNHKTPESNIKMKIAWRYQLLPKMEIGPVSSSRFGHYYDASKRMPQELIEASNWHGFFLPEKISSTLKVEPCSLTPGYTKLLQFIQNIIYEEGFDGSNPQKKQRNILRIGIQNLGSPLWGDDICCAENGGNSHSLTKFLYVLRGLLRTSLSACIITMPTHLIQNKAIIARVTTLSDVVVGLESFIGSERETNPLYKDYHGLIHIRQIPRLNNLICDESDVKDLAFKLKRKLFTIERLHLPPDLSDTVSRSSKMDLAESAKRLGPGCGMMAGGKKHLDF chain 2: MLDSLLALGGLVLLRDSVEWEGRSLLKALVKKSALCGEQVHILGCEVSEEEFREGFDSDINNRLVYHDFFRDPLNWSKTEEAFPGGPLGALRAMCKRTDPVPVTIALDSLSWLLLRLPCTTLCQVLHAVSHQDSCPGDSSSVGKVSVLGLLHEELHGPGPVGALSSLAQTEVTLGGTMGQASAHILCRRPRQRPTDQTQWFSILPDFSLDLQEGPSVESQPYSDPHIPPVDPTTHLTFNLHLSKKEREARDSLILPFQFSSEKQQALLRPRPGQATSHIFYEPDAYDDLDQEDPDDDLDI chain 3: MFVELNNLLNTTPDRAEQGKLTLLCDAKTDGSFLVHHFLSFYLKANCKVCFVALIQSFSHYSIVGQKLGVSLTMARERGQLVFLEGLKSAVDVVFQAQKEPHPLQFLREANAGNLKPLFEFVREALKPVDSGEARWTYPVLLVDDLSVLLSLGMGAVAVLDFIHYCRATVCWELKGNMVVLVHDSGDAEDEENDILLNGLSHQSHLILRAEGLATGFCRDVHGQLRILWRRPSQPAVHRDQSFTYQYKIQDKSVSFFAKGMSPAVL | binds | –
2 | mouse Elp456 subcomplex (Elp4, Elp5, Elp6) of the reconstituted mouse Elongator complex (complex, UniProt Q9ER73 1-422; Q99L85 1-300; Q8BK75 1-266) chain 1: MAAADTCGAGTLSSRSVASEAGQGGTSSFQRKGKASGGPGGGPRLLSIAGTRPSVRNGQLLVSTGLPALDQLLGGGLAVGTLLLIEEDKYNIYSPLLFKYFMAEGIINGHTLLVASAKENPAKILQELPAPLLDDNSKKELEDVHSAKTPEPNVNMKIAWRYQLQPKMEVGPVSSSRFGHYYDLSKRIPWELLQSSKWHGFFLPEHISPDLKGESCFLSCGYMRLLEFIQKSVYAEGFDGANPQKKQKNILRIGIQNLGSPLWGDDICCKENCDNNHRLTKFLYILRGLLRSSLSACIITMPAHLVQNKSITTRVRNLSDTVVGLESFIGSERETNPLYKDYHGLIHIRKIPRLNNLTCDESDVKDLAFKLKRKLFTIERLHLPPDLSDTVGRSSKQDLAASTARLGAGCSSMAEGKKHLDF chain 2: MLDSLLAIGGLVLLRDSVEWEGRSLLKALIKKSALRGEQVHVLGCEVSEEEFREGFDSDVNSRLVYHDLFRDPLNWSKPGEAVPEGPLKALRSMCKRTDHGSVTIALDSLSWLLCHIPCVTLCQALHALSQQNGDPGDNSLVEQVRVLGLLHEELHGPGSMGALNTLAHTEVTLSGKVDQTSASILCRRPQQRATYQTWWFSVLPDFSLTLHEGLPLRSELHPDHHTTQVDPTAHLTFNLHLSKKEREARDSLTLPFQFSSEKQKALLHPVPSRTTGHIFYEPDAFDDVDPEDPDDDLDI chain 3: MFPELNNLLSTTPDKTEQGTLTLLCDAKTDGSFLVHHFLSFYLKANCKVCFVALVQSFSHYNIVGQKLGVSLTAARDRGQLVFLEGLKSSVEVLFHSQDEPHPLQFLREAGTGNLQSLYTFIQDTLKPADSEESPWKYPVLLVDNLSVLLSLGVGAVAVLDFMQYCRATVCCELKGNVVALVHDTEGATDEGNDTLLNGLSHQSHLILRAEGLATGFCKDVHGQLSILWRRPSRSTAQRAQSLTYQYKIQDKNVSFFAKGMSPAVL | – | binds
